# Assay results taken from PMC5216755.
# Chains of the proteins cited; added tags and fusions are not shown.
# UniProt Q9C0K0: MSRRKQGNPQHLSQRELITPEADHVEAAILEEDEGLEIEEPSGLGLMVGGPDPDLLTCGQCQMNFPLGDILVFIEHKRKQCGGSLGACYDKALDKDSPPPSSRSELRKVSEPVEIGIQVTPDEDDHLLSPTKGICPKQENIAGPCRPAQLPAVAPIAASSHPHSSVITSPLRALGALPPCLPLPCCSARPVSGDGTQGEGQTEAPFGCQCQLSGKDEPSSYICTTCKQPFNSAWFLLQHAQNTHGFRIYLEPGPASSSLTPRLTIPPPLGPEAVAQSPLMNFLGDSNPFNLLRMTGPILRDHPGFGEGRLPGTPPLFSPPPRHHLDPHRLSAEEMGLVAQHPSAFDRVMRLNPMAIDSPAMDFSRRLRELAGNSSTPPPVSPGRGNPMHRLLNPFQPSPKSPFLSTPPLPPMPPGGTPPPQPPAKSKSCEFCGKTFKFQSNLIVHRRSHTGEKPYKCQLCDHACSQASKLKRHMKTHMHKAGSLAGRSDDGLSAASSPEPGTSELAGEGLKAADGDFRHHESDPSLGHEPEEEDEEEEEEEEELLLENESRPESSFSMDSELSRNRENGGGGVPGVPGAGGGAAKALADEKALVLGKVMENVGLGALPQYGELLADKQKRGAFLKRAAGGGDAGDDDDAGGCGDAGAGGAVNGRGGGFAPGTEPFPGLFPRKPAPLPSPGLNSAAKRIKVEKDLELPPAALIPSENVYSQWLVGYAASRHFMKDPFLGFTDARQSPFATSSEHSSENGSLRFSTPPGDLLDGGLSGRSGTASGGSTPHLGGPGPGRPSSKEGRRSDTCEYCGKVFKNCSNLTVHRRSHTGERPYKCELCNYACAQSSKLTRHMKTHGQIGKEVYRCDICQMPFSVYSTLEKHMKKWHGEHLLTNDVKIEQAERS
# UniProt Q9Y6J0: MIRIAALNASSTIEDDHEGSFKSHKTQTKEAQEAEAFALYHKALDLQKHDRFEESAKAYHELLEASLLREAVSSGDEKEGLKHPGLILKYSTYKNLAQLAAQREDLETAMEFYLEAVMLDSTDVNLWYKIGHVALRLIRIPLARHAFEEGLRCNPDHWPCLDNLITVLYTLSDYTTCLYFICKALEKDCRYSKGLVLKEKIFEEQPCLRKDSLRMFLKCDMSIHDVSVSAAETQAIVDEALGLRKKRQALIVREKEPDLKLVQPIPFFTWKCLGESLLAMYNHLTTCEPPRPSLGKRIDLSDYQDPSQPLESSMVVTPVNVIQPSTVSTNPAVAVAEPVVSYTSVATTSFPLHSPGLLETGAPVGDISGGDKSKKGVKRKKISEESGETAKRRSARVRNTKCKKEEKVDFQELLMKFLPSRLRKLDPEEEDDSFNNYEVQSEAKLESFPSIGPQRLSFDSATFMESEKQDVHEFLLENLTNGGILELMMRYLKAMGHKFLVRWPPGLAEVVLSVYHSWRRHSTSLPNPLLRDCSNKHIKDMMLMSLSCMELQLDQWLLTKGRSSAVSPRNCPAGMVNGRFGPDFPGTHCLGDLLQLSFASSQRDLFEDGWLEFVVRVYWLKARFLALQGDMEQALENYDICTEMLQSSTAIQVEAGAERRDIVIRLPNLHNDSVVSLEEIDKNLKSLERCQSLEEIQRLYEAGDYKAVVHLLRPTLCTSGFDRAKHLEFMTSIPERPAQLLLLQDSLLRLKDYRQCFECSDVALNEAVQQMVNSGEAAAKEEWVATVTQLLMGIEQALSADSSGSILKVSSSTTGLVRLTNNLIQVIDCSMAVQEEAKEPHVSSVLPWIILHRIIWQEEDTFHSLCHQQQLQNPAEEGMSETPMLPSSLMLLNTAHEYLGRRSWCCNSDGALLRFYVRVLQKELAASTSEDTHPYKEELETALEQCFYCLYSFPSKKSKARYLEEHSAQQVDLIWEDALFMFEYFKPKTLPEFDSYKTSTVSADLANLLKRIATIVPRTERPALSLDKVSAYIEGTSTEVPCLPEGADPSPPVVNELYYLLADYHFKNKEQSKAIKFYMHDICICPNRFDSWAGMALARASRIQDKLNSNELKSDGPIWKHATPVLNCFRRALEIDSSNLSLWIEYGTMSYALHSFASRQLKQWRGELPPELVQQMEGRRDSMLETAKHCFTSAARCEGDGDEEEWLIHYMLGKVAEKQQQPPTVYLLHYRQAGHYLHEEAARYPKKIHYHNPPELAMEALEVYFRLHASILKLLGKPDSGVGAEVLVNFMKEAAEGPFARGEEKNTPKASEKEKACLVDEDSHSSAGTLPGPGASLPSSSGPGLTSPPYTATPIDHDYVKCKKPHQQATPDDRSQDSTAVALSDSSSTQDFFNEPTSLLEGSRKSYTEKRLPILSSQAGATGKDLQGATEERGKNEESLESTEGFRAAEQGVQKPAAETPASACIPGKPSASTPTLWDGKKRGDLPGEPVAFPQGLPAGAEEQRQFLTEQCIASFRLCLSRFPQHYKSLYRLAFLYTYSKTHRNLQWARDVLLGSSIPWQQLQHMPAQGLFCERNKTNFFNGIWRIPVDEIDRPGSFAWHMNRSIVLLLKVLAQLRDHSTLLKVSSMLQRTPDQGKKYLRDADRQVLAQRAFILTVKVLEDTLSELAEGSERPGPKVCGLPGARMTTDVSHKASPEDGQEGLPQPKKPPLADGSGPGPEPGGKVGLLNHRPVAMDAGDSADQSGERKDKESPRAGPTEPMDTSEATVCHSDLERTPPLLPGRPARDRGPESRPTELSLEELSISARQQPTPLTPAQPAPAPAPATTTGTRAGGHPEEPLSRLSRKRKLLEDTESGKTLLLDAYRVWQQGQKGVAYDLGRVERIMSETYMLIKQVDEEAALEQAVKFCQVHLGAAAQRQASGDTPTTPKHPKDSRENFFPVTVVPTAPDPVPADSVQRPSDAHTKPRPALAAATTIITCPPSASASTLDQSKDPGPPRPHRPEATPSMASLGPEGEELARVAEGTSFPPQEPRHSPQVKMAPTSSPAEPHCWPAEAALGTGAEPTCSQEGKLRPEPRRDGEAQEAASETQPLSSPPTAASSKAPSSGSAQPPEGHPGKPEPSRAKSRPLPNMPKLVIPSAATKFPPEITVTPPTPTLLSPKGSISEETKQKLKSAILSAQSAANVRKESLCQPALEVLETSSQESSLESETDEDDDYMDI
# UniProt P35637: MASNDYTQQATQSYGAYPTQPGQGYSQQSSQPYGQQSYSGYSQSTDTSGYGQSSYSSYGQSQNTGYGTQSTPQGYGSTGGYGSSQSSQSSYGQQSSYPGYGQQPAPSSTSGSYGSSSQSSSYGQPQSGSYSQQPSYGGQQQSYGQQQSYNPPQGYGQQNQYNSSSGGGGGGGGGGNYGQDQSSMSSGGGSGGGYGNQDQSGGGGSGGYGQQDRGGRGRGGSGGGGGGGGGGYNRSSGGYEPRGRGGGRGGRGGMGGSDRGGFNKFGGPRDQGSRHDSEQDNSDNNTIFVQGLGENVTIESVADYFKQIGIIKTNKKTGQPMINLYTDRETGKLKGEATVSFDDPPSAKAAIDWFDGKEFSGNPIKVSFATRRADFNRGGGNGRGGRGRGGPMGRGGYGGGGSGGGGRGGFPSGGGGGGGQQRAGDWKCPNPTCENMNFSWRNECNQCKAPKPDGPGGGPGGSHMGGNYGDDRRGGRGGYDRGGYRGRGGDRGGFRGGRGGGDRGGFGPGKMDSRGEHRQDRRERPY
# UniProt Q16666: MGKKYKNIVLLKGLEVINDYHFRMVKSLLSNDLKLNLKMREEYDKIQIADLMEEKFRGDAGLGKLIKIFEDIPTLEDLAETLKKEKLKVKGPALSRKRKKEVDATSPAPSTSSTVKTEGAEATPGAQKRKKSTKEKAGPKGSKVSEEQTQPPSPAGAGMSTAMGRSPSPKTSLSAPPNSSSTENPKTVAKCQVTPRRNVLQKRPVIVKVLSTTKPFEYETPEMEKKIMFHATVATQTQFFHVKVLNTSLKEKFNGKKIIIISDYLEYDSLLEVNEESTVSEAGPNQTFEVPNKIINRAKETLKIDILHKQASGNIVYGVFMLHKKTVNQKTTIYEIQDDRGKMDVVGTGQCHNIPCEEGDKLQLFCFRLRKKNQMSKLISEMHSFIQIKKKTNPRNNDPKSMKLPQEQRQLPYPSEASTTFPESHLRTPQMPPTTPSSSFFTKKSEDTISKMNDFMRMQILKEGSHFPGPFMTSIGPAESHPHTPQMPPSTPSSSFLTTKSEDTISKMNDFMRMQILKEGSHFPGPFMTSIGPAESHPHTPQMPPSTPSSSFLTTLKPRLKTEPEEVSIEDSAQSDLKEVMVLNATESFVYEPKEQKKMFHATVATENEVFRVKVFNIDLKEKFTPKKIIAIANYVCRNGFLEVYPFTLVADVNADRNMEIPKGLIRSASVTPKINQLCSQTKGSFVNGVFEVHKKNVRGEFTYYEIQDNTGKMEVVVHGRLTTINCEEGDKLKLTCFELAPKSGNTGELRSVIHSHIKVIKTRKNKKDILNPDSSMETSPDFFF
# UniProt P52732: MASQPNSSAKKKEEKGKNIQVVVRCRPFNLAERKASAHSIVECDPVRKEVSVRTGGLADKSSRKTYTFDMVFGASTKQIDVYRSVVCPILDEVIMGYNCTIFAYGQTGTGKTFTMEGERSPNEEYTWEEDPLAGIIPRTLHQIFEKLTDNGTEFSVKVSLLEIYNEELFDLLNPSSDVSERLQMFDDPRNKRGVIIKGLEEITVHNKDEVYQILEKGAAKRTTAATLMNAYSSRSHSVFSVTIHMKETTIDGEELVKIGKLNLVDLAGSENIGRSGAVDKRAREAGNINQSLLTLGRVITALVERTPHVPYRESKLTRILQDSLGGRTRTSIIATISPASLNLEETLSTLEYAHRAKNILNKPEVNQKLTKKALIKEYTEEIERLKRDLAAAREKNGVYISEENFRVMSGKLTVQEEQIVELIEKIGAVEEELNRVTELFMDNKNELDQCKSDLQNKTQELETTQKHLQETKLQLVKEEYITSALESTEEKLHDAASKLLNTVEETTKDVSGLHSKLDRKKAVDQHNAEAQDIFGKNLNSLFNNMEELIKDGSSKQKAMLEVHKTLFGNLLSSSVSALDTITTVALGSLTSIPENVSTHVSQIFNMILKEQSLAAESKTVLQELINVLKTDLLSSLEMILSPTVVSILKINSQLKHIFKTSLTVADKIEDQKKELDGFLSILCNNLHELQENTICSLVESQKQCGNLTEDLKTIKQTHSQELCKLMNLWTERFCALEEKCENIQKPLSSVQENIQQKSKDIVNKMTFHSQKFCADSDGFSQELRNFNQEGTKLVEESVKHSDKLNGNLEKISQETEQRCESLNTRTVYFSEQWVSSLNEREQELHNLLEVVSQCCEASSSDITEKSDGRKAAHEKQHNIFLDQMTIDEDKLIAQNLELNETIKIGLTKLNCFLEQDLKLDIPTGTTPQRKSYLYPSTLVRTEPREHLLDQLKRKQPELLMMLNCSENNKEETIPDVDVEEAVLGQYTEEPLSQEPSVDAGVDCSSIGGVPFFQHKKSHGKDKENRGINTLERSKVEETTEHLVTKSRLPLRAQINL
# UniProt Q9UKA8: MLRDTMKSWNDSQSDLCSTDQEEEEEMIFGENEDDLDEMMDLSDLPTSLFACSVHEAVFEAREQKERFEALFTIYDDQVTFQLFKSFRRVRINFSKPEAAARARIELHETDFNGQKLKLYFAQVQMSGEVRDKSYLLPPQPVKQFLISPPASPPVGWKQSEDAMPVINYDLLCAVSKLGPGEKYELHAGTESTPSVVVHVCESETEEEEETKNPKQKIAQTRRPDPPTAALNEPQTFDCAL
# UniProt P15927: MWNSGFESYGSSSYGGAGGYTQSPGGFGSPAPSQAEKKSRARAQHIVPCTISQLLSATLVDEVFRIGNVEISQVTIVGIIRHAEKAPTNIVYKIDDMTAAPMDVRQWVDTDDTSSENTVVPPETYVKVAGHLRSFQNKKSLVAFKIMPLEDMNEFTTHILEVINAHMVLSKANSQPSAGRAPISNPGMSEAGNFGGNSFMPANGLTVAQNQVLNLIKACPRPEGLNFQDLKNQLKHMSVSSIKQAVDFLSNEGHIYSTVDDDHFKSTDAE
# UniProt Q15208: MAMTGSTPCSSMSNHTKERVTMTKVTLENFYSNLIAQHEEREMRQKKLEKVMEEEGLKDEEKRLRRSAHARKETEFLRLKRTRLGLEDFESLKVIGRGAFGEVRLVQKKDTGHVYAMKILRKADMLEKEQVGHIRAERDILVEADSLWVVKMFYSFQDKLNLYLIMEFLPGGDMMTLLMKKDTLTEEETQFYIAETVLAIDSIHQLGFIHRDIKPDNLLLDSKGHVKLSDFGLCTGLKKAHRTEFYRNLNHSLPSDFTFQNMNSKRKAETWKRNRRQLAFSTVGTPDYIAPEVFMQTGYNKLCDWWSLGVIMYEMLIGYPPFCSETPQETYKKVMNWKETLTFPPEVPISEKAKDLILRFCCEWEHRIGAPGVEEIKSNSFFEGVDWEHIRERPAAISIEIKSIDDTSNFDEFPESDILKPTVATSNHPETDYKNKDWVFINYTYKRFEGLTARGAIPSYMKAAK
# No constants are given. Whether binding was seen depends on the method and setting. In cells and extracts the contact can be indirect. A yes stands for co-enrichment or nearness to the bait. Other partners may have been found.
# B1: PRDX1 (endogenous, Jurkat) (protein, UniProt Q06830 1-199)
# chain: MSSGNAKIGHPAPNFKATAVMPDGQFKDISLSDYKGKYVVFFFYPLDFTFVCPTEIIAFSDRAEEFKKLNCQVIGASVDSHFCHLAWVNTPKKQGGLGPMNIPLVSDPKRTIAQDYGVLKADEGISFRGLFIIDDKGILRQITVNDLPVGRSVDETLRLVQAFQFTDKHGEVCPAGWKPGSDTIKPDVQKSKEYFSKQK
# B2: KHSRP (endogenous, Jurkat) (protein, UniProt Q92945 1-711)
# chain: MSDYSTGGPPPGPPPPAGGGGGAGGAGGGPPPGPPGAGDRGGGGPGGGGPGGGSAGGPSQPPGGGGPGIRKDAFADAVQRARQIAAKIGGDAATTVNNSTPDFGFGGQKRQLEDGDQPESKKLASQGDSISSQLGPIHPPPRTSMTEEYRVPDGMVGLIIGRGGEQINKIQQDSGCKVQISPDSGGLPERSVSLTGAPESVQKAKMMLDDIVSRGRGGPPGQFHDNANGGQNGTVQEIMIPAGKAGLVIGKGGETIKQLQERAGVKMILIQDGSQNTNVDKPLRIIGDPYKVQQACEMVMDILRERDQGGFGDRNEYGSRIGGGIDVPVPRHSVGVVIGRSGEMIKKIQNDAGVRIQFKQDDGTGPEKIAHIMGPPDRCEHAARIINDLLQSLRSGPPGPPGGPGMPPGGRGRGRGQGNWGPPGGEMTFSIPTHKCGLVIGRGGENVKAINQQTGAFVEISRQLPPNGDPNFKLFIIRGSPQQIDHAKQLIEEKIEGPLCPVGPGPGGPGPAGPMGPFNPGPFNQGPPGAPPHAGGPPPHQYPPQGWGNTYPQWQPPAPHDPSKAAAAAADPNAAWAAYYSHYYQQPPGPVPGPAPAPAAPPAQGEPPQPPPTGQSDYTKAWEEYYKKIGQQPQQPGAPPQQDYTKAWEEYYKKQAQVATGGGPGAPPGSQPDYSAAWAEYYRQQAAYYGQTPGPGGPQPPPTQQGQQQAQ
# B3: Rb (endogenous, Jurkat) (protein, UniProt P06400 1-928)
# chain: MPPKTPRKTAATAAAAAAEPPAPPPPPPPEEDPEQDSGPEDLPLVRLEFEETEEPDFTALCQKLKIPDHVRERAWLTWEKVSSVDGVLGGYIQKKKELWGICIFIAAVDLDEMSFTFTELQKNIEISVHKFFNLLKEIDTSTKVDNAMSRLLKKYDVLFALFSKLERTCELIYLTQPSSSISTEINSALVLKVSWITFLLAKGEVLQMEDDLVISFQLMLCVLDYFIKLSPPMLLKEPYKTAVIPINGSPRTPRRGQNRSARIAKQLENDTRIIEVLCKEHECNIDEVKNVYFKNFIPFMNSLGLVTSNGLPEVENLSKRYEEIYLKNKDLDARLFLDHDKTLQTDSIDSFETQRTPRKSNLDEEVNVIPPHTPVRTVMNTIQQLMMILNSASDQPSENLISYFNNCTVNPKESILKRVKDIGYIFKEKFAKAVGQGCVEIGSQRYKLGVRLYYRVMESMLKSEEERLSIQNFSKLLNDNIFHMSLLACALEVVMATYSRSTSQNLDSGTDLSFPWILNVLNLKAFDFYKVIESFIKAEGNLTREMIKHLERCEHRIMESLAWLSDSPLFDLIKQSKDREGPTDHLESACPLNLPLQNNHTAADMYLSPVRSPKKKGSTTRVNSTANAETQATSAFQTQKPLKSTSLSLFYKKVYRLAYLRLNTLCERLLSEHPELEHIIWTLFQHTLQNEYELMRDRHLDQIMMCSMYGICKVKNIDLKFKIIVTAYKDLPHAVQETFKRVLIKEEEYDSIIVFYNSVFMQRLKTNILQYASTRPPTLSPIPHIPRSPYKFPSSPLRIPGGNIYISPLKSPYKISEGLPTPTKMTPRSRILVSIGESFGTSEKFQKINQMVCNSDRVLKRSAEGSNPPKPLKKLRFDIEGSDEADGSKHLPGESKFQQKLAEMTSTRTRMQKQKMNDSMDTSNKEEK
# Molecular target: FLAG/HA epitope-tagged PPP3CA constitutively active mutant (F/H-PPP3CA*), stably expressed in Jurkat cells (human) (UniProt Q08209)
# Assay: affinity purification with mass spectrometry; tandem affinity purification of F/H-PPP3CA* from Jurkat whole cell extracts (anti-FLAG M2 agarose, FLAG peptide elution, then anti-HA beads, HA peptide elution); lysis in 50 mM Tris-HCl pH 7.9, 150 mM NaCl, 1 mM EDTA, 0.1% NP-40; 4°C; hits with at least three unique peptides and absent from the control IP
row,binding,Molecule
1,binds,"BCL11b (endogenous, Jurkat) (from UniProt Q9C0K0 1-894)"
2,binds,"CABIN1 (endogenous, Jurkat) (from UniProt Q9Y6J0 1-2220)"
3,binds,"DNAJA2 (endogenous, Jurkat) (from UniProt O60884 1-412)"
4,binds,"FLNA (endogenous, Jurkat) (from UniProt P21333 1-2647)"
5,binds,"FUS (endogenous, Jurkat) (from UniProt P35637 1-526)"
6,binds,"HSPA8 (endogenous, Jurkat) (from UniProt P11142 1-646)"
7,binds,"IFI16 (endogenous, Jurkat) (from UniProt Q16666 1-785)"
8,binds,"IQGAP1 (endogenous, Jurkat) (from UniProt P46940 1-1657)"
9,binds,"KIF11 (endogenous, Jurkat) (from UniProt P52732 1-1056)"
10,binds,"NPM1 (endogenous, Jurkat) (from UniProt P06748 1-294)"
11,binds,"PKM2 (endogenous, Jurkat) (from UniProt P14618 1-531)"
12,binds,"PPP3CB (endogenous, Jurkat) (from UniProt P16298 1-524)"
13,binds,"PRMT5 (endogenous, Jurkat) (from UniProt O14744 1-637)"
14,binds,"RBBP4 (endogenous, Jurkat) (from UniProt Q09028 1-425)"
15,binds,"RCAN3 (endogenous, Jurkat) (from UniProt Q9UKA8 1-241)"
16,binds,"RPA2 (endogenous, Jurkat) (from UniProt P15927 1-270)"
17,binds,"STK38 (endogenous, Jurkat) (from UniProt Q15208 1-465)"

# Molecular target: FLAG/HA epitope-tagged PPP3CA constitutively active mutant (F/H-PPP3CA*), stably expressed in Jurkat cells (human) (UniProt Q08209)
# Assay: as above
# Remark: another data set of the same source
row,binding,Molecule
1,binds,B1
2,binds,B2
3,binds,B3
